Reference: the supplement of paper PMC12889115
This is one part of the list. Values are raw readings; no control value is given beside them.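 Primary screen: polymyxin B was added at a level permeabilizing Salmonella outer membranes while sparing inner membranes. DMSO wells, both with and without polymyxin B, established maximum growth. Plate-to-plate variation meant each plate was ranked on its own, and the lowest-OD600 compounds were selected as hits.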

System: Salmonella enterica serovar Typhimurium SL1344
Assay: bacterial growth OD600 after 18 h with compound and polymyxin B; higher = more bacterial growth (less inhibition)
Conditions: 50 µM, Mueller-Hinton broth

Compound: COC(=O)c1cc(CNC(=O)[C@@H]2C[C@@H]3C=C[C@H]2C3)cc(NS(=O)(=O)c2ccccc2Cl)c1
- bacterial growth OD600 (polymyxin B 0.75 µg/mL): 0.971

Compound: O=C1CN(C(=O)CC(c2ccccc2)c2ccc(Cl)cc2)CCN1 (stereo not drawn)
- bacterial growth OD600 (polymyxin B 1 µg/mL): 0.899

Compound: CCOC(=O)c1[nH]c(C)c(C(=O)N2CCCC(C(=O)c3ccc(OC)c(F)c3)C2)c1C (stereo not drawn)
- bacterial growth OD600 (polymyxin B 1 µg/mL): 0.887

Compound: CSc1ccc(CNC(=O)C2CCC(=O)N(CCN3CCOCC3)C2)cc1 (stereo not drawn)
- bacterial growth OD600 (polymyxin B 1 µg/mL): 1.04

Compound: CC1(CCC(=O)N2CCCC2C(=O)Nc2ccccc2Oc2cccnc2)CC1 (stereo not drawn)
- bacterial growth OD600 (polymyxin B 1 µg/mL): 0.952

Compound: CCOC(=O)C1(Cc2ccccc2C(F)(F)F)CCN(C(=O)c2ccc[n+]([O-])c2)CC1
- bacterial growth OD600 (polymyxin B 1 µg/mL): 0.879

Compound: Cc1nn(C)c(Cl)c1CN1CCCC(CCC(=O)Nc2ccccc2F)C1 (stereo not drawn)
- bacterial growth OD600 (polymyxin B 1 µg/mL): 0.921

Compound: O=C(NCc1ccco1)N1CCc2onc(-c3ccc(C(F)(F)F)cc3)c2C1
- bacterial growth OD600 (polymyxin B 0.75 µg/mL): 0.776

Compound: CC(C)N1CCC(N2CCCC2C(=O)Nc2cccc(-n3cccn3)c2)CC1 (stereo not drawn)
- bacterial growth OD600 (polymyxin B 1 µg/mL): 1.01

Compound: COCCN1C(=O)CC(CC(=O)N2CCCC(c3ccccc3)CC2)(c2cccc(OC)c2)C1=O (stereo not drawn)
- bacterial growth OD600 (polymyxin B 0.75 µg/mL): 0.01

Compound: COc1ccc(CNC(=O)c2cnn(-c3nccc(-c4ccccc4OC)n3)c2C2CC2)cc1
- bacterial growth OD600 (polymyxin B 0.75 µg/mL): 0.703

Compound: Cc1ccccc1CC(C1CCN(C(=O)c2ccc(Cl)cc2)CC1)N(C)C(=O)Cn1cccn1 (stereo not drawn)
- bacterial growth OD600 (polymyxin B 0.75 µg/mL): 0.836

Compound: CC(=O)c1ccccc1-c1ccc2c(c1)CC(CNC(=O)c1ccc(C)cc1C)O2 (stereo not drawn)
- bacterial growth OD600 (polymyxin B 0.75 µg/mL): 0.003

Compound: COc1cccc(CNC2COc3ccccc3C2)c1OC (stereo not drawn)
- bacterial growth OD600 (polymyxin B 0.75 µg/mL): 0.765

Compound: COc1cccc(-c2n[nH]c3c2CN(Cc2ccoc2)CC3)c1
- bacterial growth OD600 (polymyxin B 0.75 µg/mL): 0.768

Compound: COc1cc(C)ccc1OCc1cc(C(=O)NC(c2cccnc2)C(F)(F)F)no1 (stereo not drawn)
- bacterial growth OD600 (polymyxin B 1 µg/mL): 1.33

Compound: COCc1ccc(CN2CCCC(CCC(=O)Nc3ccc(OC)c(Cl)c3)C2)o1 (stereo not drawn)
- bacterial growth OD600 (polymyxin B 1 µg/mL): 1.07

Compound: COCC(=O)Nc1cc(C(=O)NCCCc2cccnc2)cc2nc(-c3ccccc3)n(C)c12
- bacterial growth OD600 (polymyxin B 0.75 µg/mL): 0.862

Compound: O=C(NCc1cccnc1)C1CCN(C2CCN(Cc3c(F)ccc(F)c3F)CC2)CC1
- bacterial growth OD600 (polymyxin B 1 µg/mL): 0.369

Compound: CCn1ccnc1CN1CCCC(CNC(=O)c2cccc3ccccc23)C1 (stereo not drawn)
- bacterial growth OD600 (polymyxin B 1 µg/mL): 0.771

Compound: COc1ccc(CC2=NOC(CNC(=O)c3cc(F)cc(F)c3)C2)cc1 (stereo not drawn)
- bacterial growth OD600 (polymyxin B 0.75 µg/mL): 0.803

Compound: OCC1(Cc2ccccc2F)CCCN(Cc2cccc3ccccc23)C1 (stereo not drawn)
- bacterial growth OD600 (polymyxin B 0.75 µg/mL): -0.002

Compound: O=C(NCC1CCC2(CCN(Cc3ccccc3)CC2)O1)/C(F)=C/c1ccccc1 (stereo not drawn)
- bacterial growth OD600 (polymyxin B 0.75 µg/mL): 0.737

Compound: COc1ccc(C(=O)N2CCCC(C(=O)c3ccc(C(F)(F)F)cc3)C2)o1 (stereo not drawn)
- bacterial growth OD600 (polymyxin B 1 µg/mL): 0.683

Compound: CCOC(=O)C1(CCCc2ccccc2)CCN(C(=O)c2ocnc2C)CC1
- bacterial growth OD600 (polymyxin B 1 µg/mL): 0.697

Compound: CCc1ccc(-c2cn3c(C(=O)N(C)Cc4nccn4C)csc3n2)cc1
- bacterial growth OD600 (polymyxin B 0.75 µg/mL): 0.606

Compound: COC(=O)CCC(=O)N1CCC(Oc2cccc(C(=O)NCc3cccnc3)c2)CC1
- bacterial growth OD600 (polymyxin B 1 µg/mL): 0.925

Compound: CC1CCCN(c2ccc(C(=O)N3CCCN(c4ncccn4)CC3)cn2)C1 (stereo not drawn)
- bacterial growth OD600 (polymyxin B 0.75 µg/mL): 0.957

Compound: CN(C)c1ncc2c(n1)CCCC2NC(=O)c1cc2cc(F)ccc2[nH]1 (stereo not drawn)
- bacterial growth OD600 (polymyxin B 0.75 µg/mL): 0.014

Compound: Cc1ccc(C)c(CN2CCCC(CO)(Cc3ccccc3F)C2)c1 (stereo not drawn)
- bacterial growth OD600 (polymyxin B 1 µg/mL): 0.588

Compound: C=CCNC(=O)NC1CC(=O)N(Cc2ccccc2C(F)(F)F)C1 (stereo not drawn)
- bacterial growth OD600 (polymyxin B 1 µg/mL): 0.809

Compound: Cc1nc(CNC(=O)c2cc(COc3cccc(F)c3)[nH]n2)cs1
- bacterial growth OD600 (polymyxin B 0.75 µg/mL): 0.95

Compound: COc1cccc(CCC2CCCN(C(=O)c3ccoc3)C2)c1 (stereo not drawn)
- bacterial growth OD600 (polymyxin B 0.75 µg/mL): 0.003
